Library screening results

Measurements from “University of Dundee, Small-Polar-MMV Screening Library” (2021), ChEMBL document CHEMBL3988442.

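Viability assay of Plasmodium falciparum sporozoites; the read-out is not stated. The concentration is filed as 10 mM, unlikely as a test dose, so the dose is not known. Direction is inferred from retests: higher values go with lower viability. Strong results were mostly tested again. Size under these conditions: about 34,000 compounds, about 280 of them at 50% or above in at least one test.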

The filed quantity is “Percent Effect” (%).
How 0% and 100% were set is not recorded. Most values in the screen are low, and negative values occur.
Compounds were drawn at random from those tested, without regard to their results.
Two or more numbers in one place are separate tests of the same structure; such repeats can differ widely.

SMILES,Percent Effect
COC(=O)CC(NC(=O)c1cc(OC)c2c(c1)OCCO2)c1cccs1 (stereo unspecified),10.04%
CCn1cc(CN2CCCn3nc(CNC(=O)N(C)C)cc3C2)cn1,13.25%
CN1CCN(C(=O)c2cnc3c(cnn3C3CCCC3)c2)CC1,-2.385%
[H][C@]12CC[C@@]3(N=C(CC)NC3=O)[C@@]1([H])CN(C(=O)Nc1ccc(F)cc1)C2,-6.99%
COc1ccccc1CC(=O)NC(C)c1nc2cccnc2n1C(C)C (stereo unspecified),8.819%
O=c1c(CN2CCCCCC2)coc(O)c1CN1CCOCC1,-23.35%
O=C(NCC1CCOC1)Nc1ccc(Oc2cccc(F)c2)nc1 (stereo unspecified),6.415%
Cc1cc(-c2nn(C)c(Cl)c2CN2CC[C@H](CO)[C@@H](O)C2)no1,2.977%
Cc1cc(C(=O)N2CCC(c3nccn3Cc3ccncc3)CC2)no1,-5.785%
CN1CCC/C1=N\S(=O)(=O)c1ccc(NC(=O)c2ccc(F)cc2)cc1,-0.5333%
Cc1ccccc1[C@@H]1CN(C(=O)c2ccc3[nH]nnc3c2)C[C@H]1C(=O)O,-10.2%
CCOCCCNS(=O)(=O)c1ccc2c(c1)NC(=O)C(C)O2 (stereo unspecified),4.908%
CO[C@@H]1CC[C@@H](NC(=O)CCc2ccc(Cl)cc2)[C@H]1O,3.465%
OC[C@@H](O)CN(CCC(F)(F)F)c1ncccn1,5.673%
CC(=O)N1CCOC(CNC(=O)c2cccc(CCC(C)(C)O)c2)C1 (stereo unspecified),-13.47%
COc1c(C)cnc(CN2CCOC(Cn3cncn3)C2)c1C (stereo unspecified),4.371%
Cc1ccc(C)c(C(=O)Nc2ccc(OC3CCN(C)CC3)cc2)c1,-27.52% & 1.11% & 2.895%
O=C(Cc1ccc(F)cc1)NCCNc1cc(N2CCCC2)cnn1,2.363% & 4.651%
Cc1cnn(CC2CN(Cc3nnc(C4CC4)o3)CCO2)c1 (stereo unspecified),-6.266%
Cc1cc2cc(C(=O)N[C@@H]3CC[C@@H](N4CCCC4)[C@@H]3O)ccc2o1,-4.184%
CCN1CCn2c(C)cnc2C12CCN(C(=O)NCC(C)C)CC2.O=C(O)C(F)(F)F,-4.693%
Cc1nc(C2CCCN(C(=O)COCc3ccccc3)C2)no1 (stereo unspecified),12.09%
CCc1nc(CN2CCCN(C(=O)C3CCOC3)CC2)cs1 (stereo unspecified),18.42%
Cn1cc(CN2CC3(CCN(C(=O)c4cscn4)C3)C2)cn1,-9.635%
COCCN(CCC#N)S(=O)(=O)c1cc(F)ccc1F,0.8284%
Cc1nc(C)n(C2CCCN(C(=O)c3ccn(C(C)C)n3)C2)n1 (stereo unspecified),5.666%
Cc1ccc(CC(=O)N2CCCC(c3nccs3)C2)cn1 (stereo unspecified),-25.65%
COc1ccc(CN2Cc3nnn(C)c3C(COCCN(C)C)C2)cc1.O=C(O)C(F)(F)F.O=C(O)C(F)(F)F (stereo unspecified),-1.316%
Cn1cccc1C(=O)N1CCC(O)(CN2CCc3ccccc3C2)C1 (stereo unspecified),-8.536%
CC(=O)N(Cc1ncc(C)o1)C1CCN(Cc2nccn2C)C1 (stereo unspecified),3.664%
Cc1cn2c(n1)CCC(NC(=O)c1[nH]nc(C)c1Br)C2 (stereo unspecified),3.812%
Cc1ccc(C(=O)NCCCN(C)S(C)(=O)=O)cc1-n1cccc1,10.3%
CC[C@H]1N(C)CCC[C@]12CCC(=O)N2Cc1ccncc1.O=C(O)C(F)(F)F.O=C(O)C(F)(F)F,-1.193%
Cc1cc(C(=O)NC2CCc3c(ccc(=O)n3CCN(C)C)C2)no1 (stereo unspecified),10.05%
CCC(NC(=O)C1CCN(S(=O)(=O)N(C)C)CC1)c1ccc(C)c(C)c1 (stereo unspecified),-3.053%
O=C1OCC(CO)N1Cc1cccc(Cl)c1F (stereo unspecified),-14.43% & -10.47%
Cc1c[nH]nc1C1CCCCN1C(=O)Cn1cc(Cl)cn1 (stereo unspecified),0.2356%
Cc1ccccc1C(=O)NCc1ccnc(N(C)C)c1,0.625%
COc1cc(Cl)ccc1CNC(=O)N1CCC(n2cncn2)CC1,7.358%
O=C(O)C(F)(F)F.[H][C@]12CN(CCN(C)C)C(=O)[C@@]1([H])CN(S(=O)(=O)c1cccs1)C2,-6.843%
Cc1ccc(S(=O)(=O)NC2CC2)cc1C,-11.42%
CC(C)CCNC(=O)C(c1cccc(F)c1)N(C)C (stereo unspecified),-9.912%
CN(C(=O)c1ccccn1)c1nnc(C2CCOC2)s1 (stereo unspecified),1.283%
Cc1ccc(C(=O)N2CCC3(CC2)CCN(CCN(C)C)C3=O)cn1.O=C(O)C(F)(F)F.O=C(O)C(F)(F)F,5.557%
c1ccc(-c2nc(CN3CCOC(Cn4cccn4)C3)no2)cc1 (stereo unspecified),-20.59%
CC1(c2ncc(CN(CC(=O)O)Cc3ccccc3)cn2)CCCCO1 (stereo unspecified),1.347%
CCc1nc(CN(C)C2CCN(CCc3ccncc3)C2)no1 (stereo unspecified),8.051%
CC(=O)NCCNC(=O)N(C)Cc1ccc2c(c1)OCCO2,-10.11%
Cc1n[nH]c(C2CN(C(=O)c3scnc3C)CCO2)n1 (stereo unspecified),-18.65% & -21.32%
CC(O)CN1CCN(C(=O)CN(C)c2cnccn2)CC1 (stereo unspecified),-5.529%
Cc1ccc(CNC(=O)Nc2nncs2)cn1,6.171%
[H][C@]12CNC[C@@]1(C(=O)N1CCN(c3ncccc3C#N)CC1)CN(C)C2,-18.31%
CN(C)C(=O)c1cn2cc(-c3ccccc3Cl)n(CC3CC3)c(=O)c2n1,2%

Repeated from the top, 4 entries:

COC(=O)CC(NC(=O)c1cc(OC)c2c(c1)OCCO2)c1cccs1 (stereo unspecified) read 10.04%.
CCn1cc(CN2CCCn3nc(CNC(=O)N(C)C)cc3C2)cn1 read 13.25%.
CN1CCN(C(=O)c2cnc3c(cnn3C3CCCC3)c2)CC1 read -2.385%.
[H][C@]12CC[C@@]3(N=C(CC)NC3=O)[C@@]1([H])CN(C(=O)Nc1ccc(F)cc1)C2 read -6.99%.